Among all 390,000 compounds or so, about 820 (0.21%) were called active. The source calls these results inconclusive, neither active nor inactive. Calls follow the shape of the dose curve; as a rule, active = well fitted inhibition curve with a large enough effect; inconclusive = small, poorly fitted or top-dose-only effect, or another doubt; inactive = no such curve, though single readings can be large or run the other way.
These molecules were tested against Histone acetyltransferase KAT2A (Homo sapiens) (UniProt Q92830) (assay: qHTS Assay for Inhibitors of GCN5L2). Conditions: GCN5L2 HAT assay, ThioGlo1 CoA-SH fluorescence.
Potency is read from the fitted curve at half-maximal effect.

The chains behind the UniProt entries cited, without tags or fusion partners.
UniProt Q92830, whole entry: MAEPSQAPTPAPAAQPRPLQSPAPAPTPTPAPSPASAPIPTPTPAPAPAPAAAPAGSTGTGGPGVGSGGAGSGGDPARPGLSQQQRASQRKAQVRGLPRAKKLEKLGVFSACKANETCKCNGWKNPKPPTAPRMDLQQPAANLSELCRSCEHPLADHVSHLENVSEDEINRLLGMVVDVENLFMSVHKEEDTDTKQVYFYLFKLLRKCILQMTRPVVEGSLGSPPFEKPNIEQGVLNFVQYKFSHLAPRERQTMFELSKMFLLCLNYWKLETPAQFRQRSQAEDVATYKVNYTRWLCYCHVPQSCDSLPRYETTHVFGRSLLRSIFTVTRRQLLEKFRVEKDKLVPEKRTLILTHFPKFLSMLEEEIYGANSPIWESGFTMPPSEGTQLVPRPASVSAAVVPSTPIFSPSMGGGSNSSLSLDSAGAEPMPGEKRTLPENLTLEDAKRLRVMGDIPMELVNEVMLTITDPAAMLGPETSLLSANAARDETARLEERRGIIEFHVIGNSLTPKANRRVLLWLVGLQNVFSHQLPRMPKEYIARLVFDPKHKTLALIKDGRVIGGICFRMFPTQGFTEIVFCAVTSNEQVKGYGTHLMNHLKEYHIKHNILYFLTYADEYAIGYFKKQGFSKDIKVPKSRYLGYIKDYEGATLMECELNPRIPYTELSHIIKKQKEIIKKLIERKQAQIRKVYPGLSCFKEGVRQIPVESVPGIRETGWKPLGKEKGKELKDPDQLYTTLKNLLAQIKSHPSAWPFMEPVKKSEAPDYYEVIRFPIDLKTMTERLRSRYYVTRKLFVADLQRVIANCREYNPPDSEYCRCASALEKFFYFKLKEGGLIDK

| SMILES | Potency |
| --- | --- |
| CCOC(=O)N1CCC(Nc2ccc(C)cc2)CC1 | inconclusive: 7.08 µM |
